The source of these data is PubChem BioAssay AID2685 (National Center for Advancing Translational Sciences (NCATS), 2010).

This is one part of the list. Shown are side measurements of this screen, not its main read-out; they come without a call. Compounds called inactive in the main read-out are mostly missing here. The note in brackets gives the kind of curve behind each potency; many fits are weak.

This experiment can be described thus: qHTS Assay for Lipid Storage Modulators in Drosophila S3 Cells.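 As to cell number change: cells counted by Cell Tracker Red CMTPX staining in the red channel.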 The settings on record: BODIPY lipid droplet fluorescence, 18-24 h; for cell number change: measured here: cell count max response, cells fed with added oleic acid. In short, it runs like this: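 Drosophila S3 cells got compounds at several concentrations plus oleic acid (400 uM solution). Laser-scanning cytometry with 488 nm excitation read lipid droplets at 500-530 nm and cells at 575-640 nm. Percent activity was relative to 20 uM Triacsin C.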
Background: qHTS replaces the single test concentration by a dilution series.

[1] abbreviates: measured here: lipid fluorescence (Fed channel) AC50, cells fed with added oleic acid.
Where [2] appears, read: measured here: cell number channel AC50, cells fed with added oleic acid.

By AC50 is commonly meant the midpoint of the concentration-response curve, whichever way the signal moves. `O=S(=O)(N1CCOCC1)N1CCN(c2ccc(F)cc2)CC1`: the cell number change is 21.7%. In addition, the AC50 under setting [1] is 6.51 µM [falling, single point].
Regarding `Cc1cccc(NC(=O)C(C)Sc2nc3ccccc3c(=O)n2CCCN2CCOCC2)c1` (stereo not given), the cell number change amounted to 33%. Besides, the AC50 under setting [2] was 32.6 µM [rising, single point]. Moreover, the AC50 under setting [1] is 29.1 µM [rising, single point].
Consider `Cn1c2c(c(=O)n(C)c1=O)CN(CCCN1CCOCC1)CN2`, for which the cell number change is -164%. For the same compound, the AC50 under setting [2] was 23.1 µM [falling, partial curve]. Moreover, the AC50 under setting [1] was 23.1 µM [falling, partial curve].
For the compound `CCOc1ccccc1OC(=O)c1cc2ccccc2oc1=O`, the cell number change is -31.4%. The AC50 under setting [2] was 4.11 µM [falling, single point].
For the compound `NC(=O)c1nc(N2CCOCC2)nc(N2CCOCC2)n1`, the cell number change worked out at 4.17%. For the same compound, the AC50 under setting [1] was 13 µM [rising, partial curve].
For `Cc1[nH]c2ccccc2c1SCc1ccccc1`, the cell number change is -3.37%.
Regarding `CCOC(=O)c1ccc(CNC(=O)Cn2nnc(-c3ccccc3F)n2)o1`, the cell number change turned out to be 8.17%. For the same compound, the AC50 under setting [1] was 0.116 µM [rising, full curve, poor fit].
Take `CC(C)(C)C1CCC(C(=O)Nc2ccccc2N2CCOCC2)CC1` (stereo not given): the cell number change was -30.1%. In addition, under setting [2], the AC50 is 14.6 µM [falling, partial curve]. The AC50 under setting [1] is 5.8 µM [falling, full curve].
In the case of `CNC(=O)NC(=S)NC(=O)c1cccc(Cl)c1`, the cell number change was -42.5%. Also, the AC50 under setting [2] is 0.82 µM [falling, full curve].
As to `O=C(CSc1nnc(COc2ccc(Cl)cc2)o1)NC1CC2CCC1C2` (stereo not given), the cell number change was -5.26%.
Regarding `CCOC(=O)C(=CNc1cc(C)ccc1-n1cccc1)C(=O)OCC`, the cell number change worked out at 4.13%. In addition, under setting [2], the AC50 was 0.092 µM [rising, full curve, poor fit]. In addition, the AC50 under setting [1] was 3.66 µM [rising, single point].
In the case of `Cc1cc(C)c(NS(=O)(=O)c2c(C)noc2C)c(C)c1`, the cell number change is 0.298%. Besides, the AC50 under setting [1] was 16.4 µM [rising, single point].
`Cc1noc(C)c1CSc1nnc(-c2ccncc2)n1-c1ccc(Cl)c(Cl)c1`: the cell number change stood at 17.3%. For the same compound, the AC50 under setting [2] is 2.91 µM [rising, single point].
`CCC(C)[C@H](NC(=O)N1c2ccccc2NC(=O)[C@@H]1C(C)C)C(=O)N[C@@H](Cc1ccccc1)C(=O)O` (stereo not given in full): the cell number change amounted to 18.4%. For the same compound, the AC50 under setting [1] is 29.1 µM [rising, single point].
Consider `CC(C)c1ccc(NC(=O)COc2ccc(S(=O)(=O)N3CCOCC3)cc2)cc1`, for which the cell number change amounted to 16.4%. Also, under setting [2], the AC50 was 0.13 µM [falling, full curve, poor fit]. The AC50 under setting [1] was 0.13 µM [falling, full curve, poor fit].
As to `COC(=O)[C@@]12CCCCN1[C@H](c1ccc(-c3cccc(Cl)c3)c(OC)c1)[C@@H]1C(=O)N(C)C(=O)[C@@H]12`, the cell number change is -49.5%. Further, the AC50 under setting [2] was 20.6 µM [falling, partial curve]. The AC50 under setting [1] was 6.51 µM [falling, single point].
`O=C(NC1CCCc2ccccc21)C1CCN(S(=O)(=O)c2ccccc2F)CC1` (stereo not given): the cell number change was -66.7%. Further, the AC50 under setting [2] was 20.6 µM [falling, single point].
As for `Cc1cccc(OCCCN2C(=O)C(=O)c3cc(C)ccc32)c1`, the cell number change is -29.9%. Under setting [1], the AC50 was 9.2 µM [falling, partial curve, poor fit].
With `O=C(CCOc1ccccc1)Nc1ccc([N+](=O)[O-])cc1`, the cell number change is 21.7%.
With `O=C(Oc1ccc(-c2nnco2)cc1)c1ccc(F)c(S(=O)(=O)N2CCOCC2)c1`, the cell number change is -5.55%. In addition, under setting [1], the AC50 was 29.1 µM [rising, single point].
As for `CCOC(=O)C1CCN(C(=O)c2oc3ccc4c(c3c2C)C(O)CC2(CCCCC2)O4)CC1` (stereo not given), the cell number change was -23.9%. Besides, under setting [1], the AC50 was 5.17 µM [falling, partial curve].
As to `COc1cc(NC(=O)CCS(=O)(=O)c2nc(-c3cccs3)cc(C(F)(F)F)n2)cc(OC)c1OC`, the cell number change is -70.9%. In addition, under setting [2], the AC50 is 20.6 µM [falling, single point]. Further, the AC50 under setting [1] is 18.4 µM [falling, single point].
Take `O=Cc1ccc2oc3nc4n(c(=O)c3c(=O)c2c1)CCCS4`: the cell number change was -67%. The AC50 under setting [2] was 29.1 µM [falling, single point]. Besides, under setting [1], the AC50 is 29.1 µM [falling, single point].
As for `COc1cc(/C=C2/SC(=S)N(Cc3ccccc3)C2=O)ccc1OCC(=O)O`, the cell number change stood at 8.03%. The concentration at half-maximal activity (AC50) under setting [2] was 2.06 µM [rising, partial curve]. Moreover, under setting [1], the AC50 is 0.731 µM [rising, single point].
Turning to `CC(OC(=O)Cc1n[nH]c(=O)c2ccccc12)C(=O)Nc1cccc([N+](=O)[O-])c1` (stereo not given), the cell number change was 24.3%. For the same compound, the AC50 under setting [1] is 0.651 µM [rising, single point].
As for `COc1ccc(N=C2C(=Nc3ccc(OC)cc3)N(c3ccc(OC)cc3)C(=S)N2C)cc1`, the cell number change was -88.7%. In addition, the half-maximal activity concentration (AC50) under setting [2] is 4.61 µM [falling, full curve]. Also, under setting [1], the AC50 was 3.26 µM [falling, full curve].
Take `COc1ccc(CNC(=O)c2c(F)c(F)c(F)c(F)c2F)cc1`: the cell number change worked out at 3.09%. In addition, the AC50 under setting [1] was 29.1 µM [falling, single point].
On to `COc1ccc(C2C3=C(CCCC3=O)Nc3n[nH]c(C)c32)cc1OC` (stereo not given), for which the cell number change stood at 30.8%. Under setting [2], the concentration at half-maximal activity (AC50) is 9.2 µM [rising, partial curve, poor fit].
With `COc1ccccc1N1CCN(S(=O)(=O)c2cn(C)c(=O)n(C)c2=O)CC1`, the half-maximal activity concentration (AC50) under setting [1] is 0.82 µM [falling, full curve, poor fit].
For the compound `CCOC(=O)NC(CC(=O)O)c1ccc(OC)c(OC)c1` (stereo not given), the cell number change came to 3.1%.
Regarding `CCCn1c(=S)[nH]c2ccccc2c1=O`, the cell number change is 136%. In addition, under setting [1], the AC50 was 23.1 µM [rising, partial curve].
On to `COc1ccc(C)cc1NC(=O)CNc1ccc(C(C)=O)cc1`, for which the cell number change stood at 31.6%. Further, the AC50 under setting [2] is 29.1 µM [rising, single point]. Also, the AC50 under setting [1] was 0.00461 µM [falling, full curve, poor fit].
Turning to `Cc1ccc(S(=O)(=O)N2CCN(C(=O)c3cccs3)CC2)cc1`, under setting [1], the AC50 was 0.0731 µM [falling, full curve, poor fit].
Regarding `CCCCCOc1ccc(C(=O)N(Cc2ccco2)C2CCS(=O)(=O)C2)cc1` (stereo not given), the cell number change is -11%. Further, the AC50 under setting [1] is 6.51 µM [falling, single point].
Regarding `COc1ccccc1C(=O)Nc1nc2cc3c(cc2s1)OCCO3`, the cell number change was -28.9%. The AC50 under setting [1] was 16.4 µM [falling, single point].
